Data published in PubChem BioAssay (Tox21).
“And” between values parts separate entries of the source, which are not always exact repeats. Equal entries are not always repeated. Inconclusive means that the source gave no clear call. Such entries were picked first, then a sample of the others. A potency beside an inconclusive call is a rough fit, not a confirmed value. The source made the active and inactive calls. The call rests on the fitted dose curve.

assay: p53 small molecule agonists, cell-based qHTS assay with rat liver microsomes: qHTS cell viability counter screen (AID 1963580); conditions: p53RE-bla HCT-116 + rat microsomes, ATP viability, 16 h; series mostly up to 66 µM; activity change, negative = cytotoxicity: at the top concentration; further: nearly all actives have a fitted effect of over 45% in size
From the text: National Center for Advancing Translational Sciences [NCATS]
Division of Preclinical Innovation [DPI]
U.S. Environmental Protection Agency [EPA]
National Institutes of Environmental Health Sciences [NIEHS]
National Toxicology Program [NTP]
U.S. Food and Drug Administration [FDA]
p53, a tumor suppressor protein, is activated following cellular insult, including DNA damage and other cellular stresses. The activation of p53 regulates cell fate by inducing DNA repair, cell cycle arrest, apoptosis, or cellular senescence. The activation of p53, therefore, is a good indicator of DNA damage and other cellular stresses. The CellSensor p53RE-bla HCT-116 cell line contains a stably integrated beta-lactamase reporter gene under control of the p53 response elements. The activation of the reporter gene under culture conditions can be detected by fluorescence intensity. This cell line was used to screen the Tox21 10K compound library in the condition of presence of rat liver microsomes and to identify agonists that activate the p53 signaling pathway after in vitro metabolic activation (Ooka et al., Archive of Toxicology 96:1975-1987, 2022). The cytotoxicity of the Tox21 compound library against the p53 RE-bla HCT-116 cell line was tested in parallel by measuring the intra cellular ATP content in the same wells.
Tox21 Assay Protocol Summary:
The p53RE-bla cells were dispensed at 4,000cells/3ul/well in 1536-well black-clear bottom plates. After the assay plates were incubated at 37 C, 5% CO2 incubator for 5 hours, 23 nL of compounds dissolved in DMSO, positive controls or DMSO only was transferred to the assay plate. Following compound addition, 3 uL of rat liver microsomes (Molecular Toxicology, Boone, NC) at final concentration of 0.5 mg/mL and 1uL of B-Nicotinamide adenine dinucleotide 2'-phosphate (NADPH) at final concentration of 0.5 mg/mL were transferred to the assay plate. The plates were incubated at 37 C for 16 hours. 1 uL of LiveBLAzer detection mixture was added to each well and the plates were incubated at room temperature in the dark for 2 h. Fluorescence intensity at 460 and 530 nm emission and 405 nm excitation were measured by an Envision plate reader. For cell viability readout that measures cytotoxicity, 4 ul/well of CellTiter-Glo reagent was added into the assay plates using a Flying Reagent Dispenser. After 30 min incubation at room temperature, the luminescence intensity in the plates was measured using a ViewLux plate reader.
On the % scale 0 is the no-effect control and ±100 the full control effect; potency means the concentration at half of the fitted maximal effect.

| SMILES | Potency | activity change, negative = cytotoxicity |
| --- | --- | --- |
| CC(C)n1nc(-c2cc3cc(O)ccc3[nH]2)c2c(N)ncnc21 | inconclusive: 0.446 µM [cytotoxic, single point] | – |
| CC1(C)COCN1 | – | inactive: 1.45% |
| CCCCC(CC)COC(=O)/C=C\C(=O)OCC(CC)CCCC (stereo not given) | inconclusive: 4.08 µM [cytotoxic, single point] | – |
| O=C(O)CC(C(=O)O)C(CC(=O)O)C(=O)O (stereo not given) | inconclusive: 45 µM [cytotoxic, single point] | – |
| COc1ccc(C(Cl)=C(c2ccc(OC)cc2)c2ccc(OC)cc2)cc1 | inconclusive: 18.1 µM [cytotoxic, single point] | – |
| O=C(O)c1ccc(C(=O)O)cc1 | inconclusive: 18.1 µM [cytotoxic, single point] | – |
| C=CC(=O)OCCCCCCCCCC | inconclusive: 51.3 µM [rising, single point] | – |
| Oc1ccc2ccccc2c1 | inconclusive: 10.5 µM [cytotoxic, single point] | – |
| CC(C)(C)c1ccc(OCC2CO2)cc1 (stereo not given) | inconclusive: 4.67 µM [cytotoxic, single point] | – |
| CCc1c(C(=O)NN2CCCCC2)nn(-c2ccc(Cl)cc2Cl)c1-c1ccc(Br)cc1 | inconclusive: 45.8 µM [cytotoxic] | – |
| CC(C)(c1cc(Br)c(O)c(Br)c1)c1cc(Br)c(O)c(Br)c1 | inconclusive: 40.6 µM [cytotoxic, single point] and inconclusive: 45.7 µM [cytotoxic, single point] and inconclusive: 43.3 µM [cytotoxic, single point] | – |
| CO[C@@]1(NC(=O)CSCC#N)C(=O)N2C(C(=O)O)=C(CSc3nnnn3C)CS[C@@H]21 | – | inactive: -0.26% [at 30.3 µM] |
| Cc1cccc(C(=O)O)c1O | inconclusive: 0.199 µM [cytotoxic, single point] | – |
| Nc1ccc(Cl)cc1[N+](=O)[O-] | – | inactive: -7.69% |
| CCc1cc(SCc2sc(-c3ccc(C(F)(F)F)cc3)nc2CN2CCN(c3ccc(OC)cc3)CC2)ccc1OCC(=O)O | active: 32.4 µM | – |
| COc1ccc([C@@H]2Sc3ccccc3NC(=O)[C@@H]2O)cc1 | inconclusive: 22.3 µM [rising, single point] | – |
| CCN(CC)CCOc1ccc(/C(=C(\Cl)c2ccccc2)c2ccccc2)cc1 | inconclusive: 37.1 µM [cytotoxic, single point] | – |
| C=CC(=O)OCCn1c(=O)n(CCOC(=O)C=C)c(=O)n(CCOC(=O)C=C)c1=O | inconclusive: 51.3 µM [cytotoxic, single point] | – |
| CC(CCc1ccc(O)cc1)NCCc1ccc(O)c(O)c1 (stereo not given) | – | inactive: 1.32% [at 30.3 µM] |
| OC(CN1CCC(Cc2ccc(F)cc2)CC1)c1ccc(Cl)cc1 (stereo not given) | – | inactive: -12.6% [at 30.3 µM] |

| SMILES | Potency | activity change, negative = cytotoxicity |
| --- | --- | --- |
| CCOc1ccc2c(c1)C(C)=CC(C)(C)N2 | inconclusive: 36.2 µM [cytotoxic, single point] | – |
| O=C1NC(=O)[C@@]2(CCOc3ccc(F)cc32)N1 | – | inactive: 0.27% [at 30.3 µM] |
| C=C(C)CNCC | inconclusive: 45 µM [cytotoxic, single point] | – |
| CNC(=O)C(c1ccccc1)c1ccccc1 | inconclusive: 45.8 µM [rising, single point] | – |
| C=C(C)C1CC=C(C)CC1 (stereo not given) | inconclusive: 50.1 µM [cytotoxic, single point] | – |
| CCC(C(=O)NC(=O)NC(C)=O)c1ccccc1 (stereo not given) | – | inactive: -0.633% [at 30.3 µM] |
| CCCCCCCCCCn1cc[n+](CCCCCCCCCC)c1C | active: 32.4 µM | – |
| CC1(C)CC(N=C=O)CC(C)(CN=C=O)C1 (stereo not given) | inconclusive: 4.64 µM [cytotoxic, single point] | – |
| CCCCCCOc1cc(C)c(O)c(C)c1C | inconclusive: 46.3 µM [cytotoxic, single point] | – |
| CNC(=S)N(C)C | inactive | – |
| C=CC(=C)CCC=C(C)C | – | inactive: -6.27% |
| COc1ccccc1/C=C/C=O | inactive | – |
| CCCN1C=CN(C)C1 | inconclusive: 1.83 µM [cytotoxic, single point] | – |
| CCCCCCCCCCCCCOP(=O)(O)O | inconclusive: 51.3 µM [cytotoxic, single point] | – |
| Cc1ncc(COP(=O)(O)O)c(C=O)c1O | – | inactive: -2.97% [at 30.3 µM] |
| O=C1OC(O)C(C(Cl)Cl)=C1Cl (stereo not given) | – | inactive: -4% |
| CCCCCCCCCCCCc1ccccc1O | inconclusive: 32.4 µM [cytotoxic, partial curve] | – |
| Nc1ccc2cc3ccc(N)cc3nc2c1 | inconclusive: 22.3 µM [cytotoxic, single point] | – |
| C=CC(=O)OCC(CO)(COCC(COC(=O)C=C)(COC(=O)C=C)COC(=O)C=C)COC(=O)C=C | active: 35.9 µM | – |
| CCC(=O)Oc1ccc(/C(CC)=C(\CC)c2ccc(OC(=O)CC)cc2)cc1 | inconclusive: 45.8 µM [cytotoxic, single point] | – |

As a working copy, 2 of the compounds above.

| SMILES | Potency | activity change, negative = cytotoxicity |
| --- | --- | --- |
| Cc1ncc(COP(=O)(O)O)c(C=O)c1O | – | inactive: -2.97% [at 30.3 µM] |
| O=C1OC(O)C(C(Cl)Cl)=C1Cl (stereo not given) | – | inactive: -4% |
